Test results from publication PMC4537050, “A long pentraxin-3-derived pentapeptide for the therapy of FGF8b-driven steroid hormone-regulated cancers” (Oncotarget, 2015).
These are yes or no findings as the source states them, for the method shown. Binding can be weak; no strength is given.

Molecular target: T1, Ac-ARPCA-NH2, acetylated pentapeptide corresponding to PTX3(100-104)
T1 sequence (peptide, N-terminal acetyl; C-terminal amide): ARPCA
Test: NMR titration; 2D 1H-13C HSQC; 190 μM ARPCA in 50 mM potassium phosphate pH 6.7 (90% H2O/10% D2O), 2.5 mM arginine, 10 mM NaCl; FGF8 added at 1:0, 1:0.5 and 1:1 ARPCA:FGF8 ratios; 298 K, 600 MHz; both purified

Recombinant FGF8b for NMR studies (ligand)
binding: binds
